Substitutions are numbered along the chain they refer to. These are yes or no findings as the source states them, for the method shown. Binding seen in cells or lysates may run through a third protein. Binding calls can cover weak binding; strength is not graded here. Where a sequence is shown, tags or fusion partners need not be part of it.
Tests used:
[1] = target: T1, FRQ^KKK/AAA (KKK315AAA, VHF-tagged) (N. crassa) (UniProt P19970); assay: co-IP; co-immunoprecipitation on VHF-tagged FRQ from lysates of N. crassa strains carrying short-ck1a^HA; overnight at 4 °C, 50 mM HEPES pH 7.4, 137 mM NaCl, 10% glycerol, 0.4% NP-40 alternative; blots with anti-FRH and anti-HA
T1 sequence: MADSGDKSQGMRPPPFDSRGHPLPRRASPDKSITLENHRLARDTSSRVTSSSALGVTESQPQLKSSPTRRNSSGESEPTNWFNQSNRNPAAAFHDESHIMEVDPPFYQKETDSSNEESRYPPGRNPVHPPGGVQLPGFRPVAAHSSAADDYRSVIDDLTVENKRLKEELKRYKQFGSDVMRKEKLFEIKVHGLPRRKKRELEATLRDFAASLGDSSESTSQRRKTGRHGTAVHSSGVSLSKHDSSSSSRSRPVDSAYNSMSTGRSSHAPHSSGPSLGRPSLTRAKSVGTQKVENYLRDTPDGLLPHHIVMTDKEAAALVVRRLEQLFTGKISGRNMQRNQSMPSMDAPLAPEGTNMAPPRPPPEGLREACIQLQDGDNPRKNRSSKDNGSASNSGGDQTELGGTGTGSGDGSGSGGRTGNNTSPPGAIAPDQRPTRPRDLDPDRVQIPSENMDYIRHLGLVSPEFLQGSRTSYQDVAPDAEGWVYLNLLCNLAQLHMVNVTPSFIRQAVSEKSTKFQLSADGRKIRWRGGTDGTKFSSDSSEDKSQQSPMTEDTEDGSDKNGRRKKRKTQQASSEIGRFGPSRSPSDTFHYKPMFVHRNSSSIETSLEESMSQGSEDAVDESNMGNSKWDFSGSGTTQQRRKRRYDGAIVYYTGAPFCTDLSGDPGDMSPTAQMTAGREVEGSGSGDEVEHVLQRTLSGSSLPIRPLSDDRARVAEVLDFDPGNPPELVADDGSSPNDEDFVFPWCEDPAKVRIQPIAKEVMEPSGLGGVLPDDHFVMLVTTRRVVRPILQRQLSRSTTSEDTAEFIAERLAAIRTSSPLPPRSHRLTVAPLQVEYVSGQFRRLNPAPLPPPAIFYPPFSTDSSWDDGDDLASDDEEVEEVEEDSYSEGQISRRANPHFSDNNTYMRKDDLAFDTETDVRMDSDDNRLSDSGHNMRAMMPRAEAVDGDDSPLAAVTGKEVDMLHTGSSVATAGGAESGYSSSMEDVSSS

[2] = target: T2, FRQ^VHF (wild-type FREQUENCY with V5-10-His-3-Flag tag) (N. crassa) (UniProt P19970); assay: as above
T2 sequence: T1 sequence with A315K, A316K, A317K

binding [1]: binds
binding [2]: binds
Substance: CASEIN KINASE 1a fused to an HA epitope tag (short-ck1a^HA) (N. crassa) (enzyme)

Reference: paper PMC11045787, “Disordered clock protein interactions and charge blocks turn an hourglass into a persistent circadian oscillator” (Nature Communications, 2024)
